Our source for the binding values is article PMC6508535.

Results are given in words; binding and its absence hold for the method and conditions named. In cells and extracts the contact can be indirect. A yes stands for co-enrichment or nearness to the bait. Other partners may have been found. For part of these data: A no says only that the protein was not detected with the bait. For part of these data: Where a sequence is shown, tags or fusion partners need not be part of it.

Assay in all cases: affinity purification with mass spectrometry; tandem affinity purification by the FLAG and His epitopes of ELF3-HFC from extracts of 10-day-old transgenic Arabidopsis seedlings (elf3-2 background), 12L:12D, harvested at ZT12; two replicates for each line
The target in assay [1] is BdELF3-HFC (Brachypodium distachyon ELF3 with C-terminal His6-3xFlag tag) (Brachypodium distachyon).
Assay [2] deals with SvELF3-HFC (Setaria viridis ELF3a with C-terminal His6-3xFlag tag) (Setaria viridis).
The target of assay [3] is T1, AtELF3-HFC (Arabidopsis EARLY FLOWERING 3 with C-terminal His6-3xFlag tag) (Arabidopsis thaliana) (UniProt O82804).
T1 sequence: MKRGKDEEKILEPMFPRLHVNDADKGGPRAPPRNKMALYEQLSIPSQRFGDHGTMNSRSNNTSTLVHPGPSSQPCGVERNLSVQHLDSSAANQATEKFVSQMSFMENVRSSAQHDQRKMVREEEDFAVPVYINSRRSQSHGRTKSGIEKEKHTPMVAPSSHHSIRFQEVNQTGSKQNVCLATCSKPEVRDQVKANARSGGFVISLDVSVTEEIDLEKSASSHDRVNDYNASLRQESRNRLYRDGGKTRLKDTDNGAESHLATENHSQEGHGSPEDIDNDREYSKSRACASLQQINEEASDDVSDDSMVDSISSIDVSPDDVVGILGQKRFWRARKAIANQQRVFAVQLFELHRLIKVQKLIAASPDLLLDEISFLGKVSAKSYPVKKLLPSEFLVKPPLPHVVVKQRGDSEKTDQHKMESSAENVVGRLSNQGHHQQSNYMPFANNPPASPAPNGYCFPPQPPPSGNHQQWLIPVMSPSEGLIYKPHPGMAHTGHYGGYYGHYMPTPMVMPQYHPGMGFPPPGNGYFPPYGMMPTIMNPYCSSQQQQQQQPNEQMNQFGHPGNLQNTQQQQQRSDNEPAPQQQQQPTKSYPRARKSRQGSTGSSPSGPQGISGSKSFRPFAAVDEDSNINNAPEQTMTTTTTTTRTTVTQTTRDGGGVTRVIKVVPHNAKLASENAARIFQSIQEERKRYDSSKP

B1: SPA1-RELATED 4 (protein, UniProt Q94BM7 1-794)
chain: MKGSSESSSRGLNNTSGVSEFCTDGSKSLSHIDYVRSLLGSHKEANLGGLDDDSIVRALECEDVSLRQWLDNPDRSVDAFECFHVFRQIVEIVNAAHSQGIVVHNVRPSCFVMSSFNNVSFIESASCSDSGSDEDATTKSREIGSSRQEEILSERRSKQQEEVKKQPFPMKQILAMEMSWYTSHEEDNGSLCNCASDIYRLGVLLFELFCPVSSREEKSRTMSSLRHRVLPPQILLNWPKEASFCLWLLHPEPSCRPSMSELLQSEFINEPRENLEEREAAMELRDRIEEQELLLEFLFLIQQRKQEAADKLQDTISLLSSDIDQVVKRQLVLQQKGRDVRSFLASRKRIRQGAETTAAEEENDDNSIDEESKLDDTLESTLLESSRLMRNLKKLESVYFATRYRQIKAATAAEKPLARYYSALSCNGRSSEKSSMSQPSKDPINDSRQGGWIDPFLEGLCKYLSFSKLRVKADLKQGDLLNSSNLVCAIGFDRDGEFFATAGVNKKIKIFECESIIKDGRDIHYPVVELASRSKLSGICWNSYIKSQVASSNFEGVVQVWDVARNQLVTEMKEHEKRVWSIDYSSADPTLLASGSDDGSVKLWSINQGVSIGTIKTKANICCVQFPSETGRSLAFGSADHKVYYYDLRNPKLPLCTMIGHHKTVSYVRFVDSSTLVSSSTDNTLKLWDLSMSISGINETPLHSFMGHTNVKNFVGLSVSDGYIATGSETNEVFVYHKAFPMPVLSYKFKTIDPVSELEVDDASQFISSVCWRGQSSTLVAANSTGNIKILEMV
B1: the binding result in assay [1] is reported as “no binding”; in assay [2] it was “no binding”; in assay [3], “binds”.

B2: SPA2 (protein, UniProt Q9T014 1-1036)
chain: MMDEGSVGDVSRIDEADVAHLQFKNSEQSFKPENIEVREVKEVQVQREAGSPDCSYGVIADFLDGKNGGDHVELIGNEPCSSRQNTNDEGDVVEELTVKTCEGSSMAIVGRPSSRARLEMNRSQFLHRFPLDGDLPGSSSMSKKVIDRGTVSILRNAGKMSLPETSNGQLAIIAVNGEANEHLTNVERNPVPVEALSHEGIKTKMLSQSGFSQFFVRKTLKGKGVTFRGPPNNRSKARNMDQQTVASSGSALVIANTSAKISSSIPLAAYDGLPCLPSNTSKPSSCANPSDTHRGCGGEGLSLREWLKSERQEVNKAECMYIFRQIVDHVDCSHSQGVVLCDLRPSSFKIFKENAVKYVVSGSQRESFDSNMNKETLSQLENPLVRRRLGDTSSLSIPAKKQKSSGPSSRQWPMFQRAGGVNIQTENNDGAIQEFHFRSSQPHCSTVACPFTSVSEQLEEKWYASPEELRGDMRSASSNIYSLGILLYELLSQFQCERAREAAMSDIRHRILPPKFLSENPKEAGFCLWLLHPESSCRPSTRDILQSEVVNGIPDLYAEGLSLSIEQEDTESELLQHFLFLSQEKRQKHAGNLMEEIASVEADIEEIVKRRCAIGPPSLEEASSSSPASSVPEMRLIRNINQLESAYFAARIDAHLPEARYRLRPDRDLLRNSDNTVAEVENSETWSSDDRVGAFFDGLCKYARYSKFETRGVLRTSELNNTSNVICSLGFDRDEDYFATAGVSKKIKIYEFNSLFNESVDIHYPAIEMPNRSKLSGVCWNNYIRNYLASSDYDGIVKLWDVTTGQAISHFIEHEKRAWSVDFSEACPTKLASGSDDCSVKLWNINERNCLGTIRNIANVCCVQFSPQSSHLLAFGSSDFRTYCYDLRNLRTPWCILSGHNKAVSYAKFLDNETLVTASTDNTLKLWDLKKTTHGGLSTNACSLTFGGHTNEKNFVGLSTSDGYIACGSETNEVYAYHRSLPMPITSYKFGSIDPISGKEIEEDNNLFVSSVCWRKRSNMVVSASSNGSIKVLQLV
On to B2, for which the binding entry is on record as “no binding” in assay [1], “no binding” in assay [2] and “binds” in assay [3].

B3: phyD (protein, UniProt P42497 1-1164)
chain: MVSGGGSKTSGGEAASSGHRRSRHTSAAEQAQSSANKALRSQNQQPQNHGGGTESTNKAIQQYTVDARLHAVFEQSGESGKSFDYSQSLKTAPYDSSVPEQQITAYLSRIQRGGYTQPFGCLIAVEESTFTIIGYSENAREMLGLMSQSVPSIEDKSEVLTIGTDLRSLFKSSSYLLLERAFVAREITLLNPIWIHSNNTGKPFYAILHRVDVGILIDLEPARTEDPALSIAGAVQSQKLAVRAISHLQSLPSGDIKLLCDTVVESVRDLTGYDRVMVYKFHEDEHGEVVAESKRNDLEPYIGLHYPATDIPQASRFLFKQNRVRMIVDCYASPVRVVQDDRLTQFICLVGSTLRAPHGCHAQYMTNMGSIASLAMAVIINGNEEDGNGVNTGGRNSMRLWGLVVCHHTSARCIPFPLRYACEFLMQAFGLQLNMELQLALQVSEKRVLRMQTLLCDMLLRDSPAGIVTQRPSIMDLVKCNGAAFLYQGKYYPLGVTPTDSQINDIVEWLVANHSDSTGLSTDSLGDAGYPRAAALGDAVCGMAVACITKRDFLFWFRSHTEKEIKWGGAKHHPEDKDDGQRMNPRSSFQTFLEVVKSRCQPWETAEMDAIHSLQLILRDSFKESEAMDSKAAAAGAVQPHGDDMVQQGMQEIGAVAREMVRLIETATVPIFAVDIDGCINGWNAKIAELTGLSVEDAMGKSLVRELIYKEYKETVDRLLSCALKGDEGKNVEVKLKTFGSELQGKAMFVVVNACSSKDYLNNIVGVCFVGQDVTGHKIVMDKFINIQGDYKAIIHSPNPLIPPIFAADENTCCLEWNTAMEKLTGWPRSEVIGKLLVREVFGSYCRLKGPDALTKFMIVLHNAIGGQDTDKFPFPFFDRKGEFIQALLTLNKRVSIDGKIIGAFCFLQIPSPELQQALEVQRRQESEYFSRRKELAYIFQVIKNPLSGLRFTNSLLEDMDLNEDQKQLLETSVSCEKQISKIVGDMDVKSIDDGSFLLERTEFFIGNVTNAVVSQVMLVVRERNLQLIRNIPTEVKSMAVYGDQIRLQQVLAEFLLSIVRYAPMEGSVELHLCPTLNQMADGFSAVRLEFRMACAGEGVPPEKVQDMFHSSRWTSPEGLGLSVCRKILKLMNGGVQYIREFERSYFLIVIELPVPLMMMMPSS
As for B3, the binding entry in assay [1], in assay [2] and in assay [3] was “binds” in each case.

B4: LIGHT-REGULATED WD 2 (protein, UniProt Q38960 1-346)
chain: MVTSSDQIQNGSEEQSKRSEIYTYEAPWQIYAMNWSIRRDKKYRLAITSLIEQYPNRVEIVQLDESNGEIRSDPNLCFEHPYPPTKTSFIPDKECQRPDLLATSSDFLRLWRISDDESRVELKSCLSSDKNSEFSGPITSFDWNEAEPRRIGTSSIDTTCTIWDIEREVVDTQLIAHDKEVYDIAWGGVGVFASVSEDGSVRVFDLRDKEHSTIIYESGEPSTPLVRLSWNKQDPRYMATVIMGSAKIVVLDIRFPALPVVELQRHQASVNAIAWAPHSSSHICSAGDDSQALIWDISSMGQHVEGGLDPILAYTAGAEVEQLQWSSSQPDWVAIAFSNKLQILRV
For the molecule B4, the binding entry in assay [1], in assay [2] and in assay [3] was “binds” each time.

B5: LWD1 (protein, UniProt Q9LPV9 1-346)
chain: MGTSSDPIQDGSDEQQKRSEIYTYEAPWHIYAMNWSVRRDKKYRLAITSLLEQYPNRVEIVQLDESNGEIRSDPNLSFEHPYPPTKTIFIPDKECQRPDLLATSSDFLRLWRIADDHSRVELKSCLNSNKNSEFCGPLTSFDWNEAEPRRIGTSSTDTTCTIWDIEREAVDTQLIAHDKEVFDIAWGGVGVFASVSADGSVRVFDLRDKEHSTIIYESSEPDTPLVRLGWNKQDPRYMATIIMDSAKVVVLDIRFPALPVVELQRHQASVNAIAWAPHSSCHICTAGDDSQALIWDISSMGQHVEGGLDPILAYTAGAEIEQLQWSSSQPDWVAIAFSTKLQILRV
With B5, the binding entry in assay [1], in assay [2] and in assay [3] was “binds” throughout.

B6: phyA (protein, UniProt P14712 1-1122)
chain: MSGSRPTQSSEGSRRSRHSARIIAQTTVDAKLHADFEESGSSFDYSTSVRVTGPVVENQPPRSDKVTTTYLHHIQKGKLIQPFGCLLALDEKTFKVIAYSENASELLTMASHAVPSVGEHPVLGIGTDIRSLFTAPSASALQKALGFGDVSLLNPILVHCRTSAKPFYAIIHRVTGSIIIDFEPVKPYEVPMTAAGALQSYKLAAKAITRLQSLPSGSMERLCDTMVQEVFELTGYDRVMAYKFHEDDHGEVVSEVTKPGLEPYLGLHYPATDIPQAARFLFMKNKVRMIVDCNAKHARVLQDEKLSFDLTLCGSTLRAPHSCHLQYMANMDSIASLVMAVVVNEEDGEGDAPDATTQPQKRKRLWGLVVCHNTTPRFVPFPLRYACEFLAQVFAIHVNKEVELDNQMVEKNILRTQTLLCDMLMRDAPLGIVSQSPNIMDLVKCDGAALLYKDKIWKLGTTPSEFHLQEIASWLCEYHMDSTGLSTDSLHDAGFPRALSLGDSVCGMAAVRISSKDMIFWFRSHTAGEVRWGGAKHDPDDRDDARRMHPRSSFKAFLEVVKTRSLPWKDYEMDAIHSLQLILRNAFKDSETTDVNTKVIYSKLNDLKIDGIQELEAVTSEMVRLIETATVPILAVDSDGLVNGWNTKIAELTGLSVDEAIGKHFLTLVEDSSVEIVKRMLENALEGTEEQNVQFEIKTHLSRADAGPISLVVNACASRDLHENVVGVCFVAHDLTGQKTVMDKFTRIEGDYKAIIQNPNPLIPPIFGTDEFGWCTEWNPAMSKLTGLKREEVIDKMLLGEVFGTQKSCCRLKNQEAFVNLGIVLNNAVTSQDPEKVSFAFFTRGGKYVECLLCVSKKLDREGVVTGVFCFLQLASHELQQALHVQRLAERTAVKRLKALAYIKRQIRNPLSGIMFTRKMIEGTELGPEQRRILQTSALCQKQLSKILDDSDLESIIEGCLDLEMKEFTLNEVLTASTSQVMMKSNGKSVRITNETGEEVMSDTLYGDSIRLQQVLADFMLMAVNFTPSGGQLTVSASLRKDQLGRSVHLANLEIRLTHTGAGIPEFLLNQMFGTEEDVSEEGLSLMVSRKLVKLMNGDVQYLRQAGKSSFIITAELAAANK
In the case of B6, the binding result in assay [1], in assay [2] and in assay [3] was “binds” each time.
